Data: patent US11078450B2, “Material containing solid bleaching agent, and detergent composition” (SHIKOKU CHEMICALS CORPORATION, priority 2016, dated 2021)

Experiment: Stability test 1 (storage test), effective oxygen retention rate
Details: uncoated solid bleaching agent (before coating)

O=S(=O)(O)O.O=S(=O)(O)OO.[K+].[K+].[K+].[K+].[K+] [Peroxysulfuric acid-sulfuric acid-penta-potassium salt]
Stability test 1: before coating, effective oxygen retention rate (%): 3%
